Measured values as given in patent US20230293518A1 (Edgewise Therapeutics, Inc., priority 2020, published 2023).
At least one structure is not confirmed: it was looked up by name or label, or the drawing left a doubt.

Each compound was assayed against skeletal myofibrils (myosin ATPase) (assay: Skeletal Myofibril ATPase Assay). Conditions: Table 4A.
Type: biochemical
Procedure: Example 12. Skeletal Myofibril ATPase Assay
Overview: Myosin ATPase activity is assessed by using a coupled reaction system, in which ADP generated by the myosin ATPase function is coupled to the disappearance of NADH through the pyruvate kinase/lactate dehydrogenase (PK-LDH) system. ATPase activity produces ADP, which is used as a substrate for PK to produce pyruvate and regenerate ATP. The pyruvate is then used as a substrate by LDH to oxidize NADH to NAD+. The rate of the reaction is monitored through the time-dependent disappearance of NADH using absorbance at 340 nm. Inhibition of ATPase activity by the assayed compounds is indicated by a reduced rate of NADH loss, relative to vehicle-treated controls, over the experimental time window. To assess the selectivity of the assayed compounds for skeletal myofibrils, the compounds are counter-screened in cardiac myofibrils.
Materials: The following stock solutions and reagents were used in the Skeletal Myofibril ATPase Assay:
Stock Solutions of pCa buffer. Combine PIPES, CaCl2, and EGTA solutions with 70 mL of water. Adjust pH to 7.0 and bring final volume to 100 mL.
Buffer A & Buffer B. Buffers were stored on ice until use.
Skeletal Myofibril ATPase Assay Procedure: BSA, ATP, NADH, PEP, and DTT solutions were thawed at room temperature, then transferred to ice. Pellet-frozen myofibrils were transferred with approximately twice the required volume into a sufficiently large tube and capped. Myofibrils were thawed by rolling in a water bath for approximately 15 min at room temperature and cooled on ice. Buffers A and B were prepared by adjusting volumes as necessary for required number of wells and stored on ice. 0.5 μL of the compounds to be assayed were added into wells. 25 μL of Buffer A was dispensed into the wells, followed by 25 μL of Buffer B. The wells were measured for absorbance at 340 nm, using a kinetic protocol in which the wells are read every 1.5-2 min for 45 min. The slope of the data was approximated by subtracting the minimum absorbance value from the maximum value for each well. This was accomplished either in the SoftMax Pro software or in a spreadsheet program such as Excel. Using GraphPad Prism 8.0, the data was normalized by assigning a value of 100% to the 1% DMSO vehicle wells. Typically, a normalized 0% value was simply assigned to a (Max−Min) value of 0. The normalized data was fit to a Four Parameter Logistic sigmoidal equation, constraining the bottom to be 0 or greater. Compounds of Table 1, 2, and 3 were tested and results of the assay appear in Tables 4a-4c. A=IC50 is less than or equal to 10 μM; B═IC50 is greater than 10 μM and less than 100 μM; C═IC50 is greater than 100 μM.

Compared with `CCNC(=O)Cn1nc(-c2ccc(NC34CCC(CC3)C4)nc2)ccc1=O` [Compound I-38, 2-(3-(6-(((1s,4s)-bicyclo[2.2.1]heptan-1-yl)amino)pyridin-3-yl)-6-oxopyridazin-1(6H)-yl)-N-ethylacetamide], `CCNC(=O)Cn1nc(-c2ccc(N3C[C@@H]4COCC3CO4)nc2)ccc1=O` [Compound I-81, 2-(3-(6-((5R)-3,6-dioxa-8-azabicyclo[3.2.2]nonan-8-yl)pyridin-3-yl)-6-oxopyridazin-1(6H)-yl)-N-ethylacetamide] is higher in IC50: < 10 µM for the first, > 100 µM for the second.

First: O=C(Cn1nc(-c2ccc(OC(F)(F)F)nc2)ccc1=O)NCc1ccccc1Cl [Compound I-3, N-(2-chlorobenzyl)-2-(6-oxo-3-(6-(trifluoromethoxy)pyridin-3-yl)pyridazin-1(6H)-yl)acetamide]
Second: CCNC(=O)Cn1nc(-c2cnc(OC(F)F)cc2F)ccc1=O [Compound I-80, 2-(3-(6-(difluoromethoxy)-4-fluoropyridin-3-yl)-6-oxopyridazin-1(6H)-yl)-N-ethylacetamide]
The IC50 of the first is lower: < 10 µM for the first, > 100 µM for the second. The first is the more potent here.
